According to PubChem BioAssay (EPA / NIEHS):
“And” between values parts separate entries of the source, which are not always exact repeats. Equal values may be shown once. Inconclusive results, whose numbers are uncertain, are shown with a selection of clear calls. Where the call is inconclusive, the potency comes from a doubtful curve fit. The source made the active and inactive calls. How the source made its calls: active means hit-call score of the fitted dose curve at least 0.9, where 1 is the maximum; inconclusive means response in the unintended direction; inactive means score below 0.9.

Protein sequences, listed by entry. Tags and fused reporters are not part of them. Lines headed by an entry give the natural chain unless they say otherwise; changes in a name come on top.
UniProt Q01717: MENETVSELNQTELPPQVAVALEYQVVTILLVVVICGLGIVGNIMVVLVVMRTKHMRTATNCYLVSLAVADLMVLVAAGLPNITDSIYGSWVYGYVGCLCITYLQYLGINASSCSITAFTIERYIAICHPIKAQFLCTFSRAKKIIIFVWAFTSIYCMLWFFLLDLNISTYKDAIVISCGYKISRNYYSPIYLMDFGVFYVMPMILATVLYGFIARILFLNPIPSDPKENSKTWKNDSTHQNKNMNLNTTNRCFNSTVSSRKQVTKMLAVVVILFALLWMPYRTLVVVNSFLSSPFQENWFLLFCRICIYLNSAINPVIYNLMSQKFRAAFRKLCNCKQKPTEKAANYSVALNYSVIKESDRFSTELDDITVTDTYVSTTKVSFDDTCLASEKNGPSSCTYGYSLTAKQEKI

target: rat Thyrotropin Releasing Hormone Receptor (TRH), Trhr (gene 25570) (UniProt Q01717); assay: NVS_GPCR_rTRH: NovaScreen (NVS) G Protein-Coupled Receptor Assay for rat Thyrotropin Releasing Hormone Receptor (TRH) (AID 2283329);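 further: hit means lower bound tracer signal versus DMSO baseline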
In short: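 Rat forebrain membrane prep, radioligand displacement, filter scintillation readout at 4 h. Single conc 25 uM, duplicate; actives retested as concentration series. DMSO = negative control/baseline.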

| SMILES | outcome | AC50 |
| --- | --- | --- |
| CCN(CCC#N)c1ccc(N=Nc2c(Cl)cc([N+](=O)[O-])cc2Cl)cc1 | inactive | – |
| CC(C)=CCCC(C)=CC#N | – | inconclusive: 0.00236 µM |
| CN(C)c1ccc2nc3ccc(=[N+](C)C)cc-3sc2c1 | – | inconclusive: 0.59 µM |
| CCCCCCCCCc1ccc(OCCO)cc1 | – | inconclusive: 0.489 µM |
| CC(C)(C)c1cc(CCC(=O)OCC(COC(=O)CCc2cc(C(C)(C)C)c(O)c(C(C)(C)C)c2)(COC(=O)CCc2cc(C(C)(C)C)c(O)c(C(C)(C)C)c2)COC(=O)CCc2cc(C(C)(C)C)c(O)c(C(C)(C)C)c2)cc(C(C)(C)C)c1O | – | inconclusive: 2.95 µM |
| CC(C)C(=O)c1ccccc1 | inactive | – |
| CCCCCCc1ccc(N)cc1 | – | inconclusive: 0.23 µM |
| C1=COCCC1 | – | inconclusive: 25 µM |
| CC(O)C(=O)O (stereo not given) | – | inconclusive: 6.2 µM |
| O=C(O)/C=C/c1ccccc1 | – | inconclusive: 25 µM |
| Cc1cccc(O)c1C | – | inconclusive: 25.6 µM |
| COC(=O)c1c(C)cc(O)c(C)c1O | inactive | – |
| CCCCC/C=C\CCC=O | inactive | – |
| O=S1(=O)OC(c2ccc(O)cc2)(c2ccc(O)cc2)c2ccccc21 | – | inconclusive: 25 µM |
| C=C1C[C@H]2[C@@H]3C=C(C)C4=CC(=O)CC[C@]4(C)[C@H]3CC[C@]2(C)[C@@]1(OC(C)=O)C(C)=O | inactive | – |
| Cc1ccc([N+](=O)[O-])c(C)c1 | inactive | – |
| CCCCCCCC/C=C\CCCCCCCC(=O)OCCO | inactive | – |
| CCCCCCCCC=O | – | inconclusive: 6.7 µM |
| OCC(O)c1ccccc1 (stereo not given) | – | inconclusive: 0.394 µM |
| O=S(=O)(O)c1ccc2ccccc2c1 | – | inconclusive: 411 nM and inconclusive: 25 µM |

| SMILES | outcome | AC50 |
| --- | --- | --- |
| CCCCCCCCCCCCCCCCCCOS(=O)(=O)O | – | inconclusive: 0.195 µM |
| O=C1C(N(CO)C(=O)NCO)N(CO)C(=O)N1CO (stereo not given) | – | inconclusive: 25 µM |
| O=C(O)CN(CC(=O)O)CC(=O)O | – | active: 5.7 µM |
| CCCCCCOC(=O)c1ccccc1 | inactive | – |
| C=C(C)C(=O)O | inactive | – |
| Oc1ccc(-c2ccccc2)c(Cl)c1 | inactive | – |
| CCCCc1ccc(Cl)cc1 | – | inconclusive: 0.147 µM |
| ClC1=C(Cl)C(Cl)(Cl)C(Cl)=C1Cl | inactive | – |
| CCCCCCCC/C=C\CCCCCCCC(=O)O | – | inconclusive: 25 µM |
| NC(CO)(CO)CO | – | inconclusive: 0.911 µM |
| CC(C)(C)c1ccc(-c2ccc(C(C)(C)C)cc2)cc1 | – | inconclusive: 0.507 µM |
| CCc1cc(Cc2cc(CC)c(N)c(CC)c2)cc(CC)c1N | – | inconclusive: 6.85 µM |
| CO[Si](C)(C)OC | – | inconclusive: 0.45 µM |
| O=C(O)c1ccc2c(c1)C(=O)OC2=O | – | inconclusive: 0.467 µM |
| O=c1c(O)c(-c2ccc(O)cc2O)oc2cc(O)cc(O)c12 | – | inconclusive: 0.0246 µM |
| O=C(OCc1ccccc1)c1ccc(O)cc1 | inactive | – |
| CCOC(=O)Cc1cccc2ccccc12 | inactive | – |
| CCCCCCC1CCC(=O)O1 (stereo not given) | inactive | – |
| CCCCOCCOC(=O)COc1nc(Cl)c(Cl)cc1Cl | – | inconclusive: 6.08 µM |
| COc1ccc(-c2coc3cc(O)cc(O)c3c2=O)cc1 | – | inconclusive: 25 µM |

A draw from above in order of heavy-atom count, largest number first.

| SMILES | outcome | AC50 |
| --- | --- | --- |
| O=c1c(O)c(-c2ccc(O)cc2O)oc2cc(O)cc(O)c12 | – | inconclusive: 0.0246 µM |
| CCCCOCCOC(=O)COc1nc(Cl)c(Cl)cc1Cl | – | inconclusive: 6.08 µM |
| CCCCCCCC/C=C\CCCCCCCC(=O)O | – | inconclusive: 25 µM |
| O=C(OCc1ccccc1)c1ccc(O)cc1 | inactive | – |
| CCOC(=O)Cc1cccc2ccccc12 | inactive | – |
| CCCCCCOC(=O)c1ccccc1 | inactive | – |
| Oc1ccc(-c2ccccc2)c(Cl)c1 | inactive | – |
| CCCCCCC1CCC(=O)O1 (stereo not given) | inactive | – |
| ClC1=C(Cl)C(Cl)(Cl)C(Cl)=C1Cl | inactive | – |
| NC(CO)(CO)CO | – | inconclusive: 0.911 µM |
| CO[Si](C)(C)OC | – | inconclusive: 0.45 µM |
| C=C(C)C(=O)O | inactive | – |
